{
  "source": "PubChem BioAssay AID1347131",
  "about": "(National Center for Advancing Translational Sciences (NCATS), 2019)",
  "note": "The whole screen tested about 410,000 compounds, of which about 2,000 (0.49%) were called active. Inconclusive results, whose numbers are uncertain, are shown with a selection of clear calls. The call rests on the fitted dose curve; tested in HEK293 reporter line. Where the call is inconclusive, the potency comes from a doubtful curve fit. Potency means the concentration at half of the fitted maximal effect.",
  "data": [
    {"experiment": "qHTS Assay for Foot and Mouth Disease Virus Antivirals: Primary Screen against the MLPCN compound library; further: nearly all actives have a fitted effect of over 55% in size", "conditions": "FMDV antiviral cell-based qHTS; activity, negative = inhibition: at 57.9 µM (top of the series)", "values": [
      {"smiles": "CC(C)(C)C(=O)N1CCN(c2ccc(NC(=O)c3ccc4c(c3)OCCO4)cc2)CC1", "Potency": "inconclusive: 31.6 µM [inhibitor, partial curve, poor fit]"},
      {"smiles": "O=C(Nc1cccc(C(=O)Nc2ccccc2C(=O)O)c1)c1cccc(Cl)c1", "activity, negative = inhibition": "inconclusive: -61.5% [inhibitor]"},
      {"smiles": "CC(=O)Nc1ccc(S(=O)(=O)N2CCN(CCCOc3cc(C)ccc3C)CC2)cc1", "Potency": "inconclusive: 31.6 µM [inhibitor, partial curve, poor fit]"},
      {"smiles": "CCOP(=O)(Nc1ccc2c(c1)C(=NNC(N)=S)c1ccccc1-2)OCC", "Potency": "inconclusive: 35.5 µM [inhibitor, partial curve, poor fit]"},
      {"smiles": "N#CC1=C(N)C(C#N)(C#N)[C@H](c2ccoc2)[C@H]2CN(Cc3ccccc3)CC=C12", "Potency": "inactive"},
      {"smiles": "COc1ccc(CCNC(=O)C(=O)NCC(c2cccs2)S(=O)(=O)c2ccccc2)cc1", "note": "(stereo not drawn)", "Potency": "inconclusive: 28.2 µM [inhibitor, partial curve, poor fit]"},
      {"smiles": "O=C(/C=C\\Nc1cccc(F)c1)c1cccs1", "Potency": "inconclusive: 20 µM [inhibitor, single point]"},
      {"smiles": "CC(=O)c1ccc(N2CCN(S(=O)(=O)c3ccccc3)CC2)c(F)c1", "Potency": "inconclusive: 12.6 µM [inhibitor, partial curve, poor fit]"},
      {"smiles": "COc1ccc(S(=O)(=O)N2CCCC(C(=O)N3CCN(c4ccccc4)CC3)C2)cc1Cl", "note": "(stereo not drawn)", "Potency": "inconclusive: 35.5 µM [inhibitor, partial curve, poor fit]"},
      {"smiles": "CC1(C)N=C(N)N=C(N)N1c1ccc(CCCCc2ccccc2)cc1", "Potency": "inconclusive: 3.55 µM [inhibitor, full curve, poor fit]"},
      {"smiles": "O=C(c1ccc(S(=O)(=O)N2CCOCC2)cc1)N(c1cccc(Cl)c1)C1C=CS(=O)(=O)C1", "note": "(stereo not drawn)", "Potency": "inconclusive: 2.24 µM [inhibitor, full curve]"},
      {"smiles": "C/C(CC(C)C)=N\\Nc1ccc(S(N)(=O)=O)cc1[N+](=O)[O-]", "Potency": "inconclusive: 35.5 µM [inhibitor, partial curve, poor fit]"},
      {"smiles": "OC(CN1CCN(c2ccc(F)cc2)CC1)c1ccc(Cl)cc1", "note": "(stereo not drawn)", "Potency": "inconclusive: 7.08 µM [inhibitor, partial curve]"},
      {"smiles": "COc1cc(/C=C2\\C(=O)ON=C2c2ccc(Cl)cc2)ccc1O", "Potency": "inconclusive: 25.1 µM [inhibitor, partial curve, poor fit]"},
      {"smiles": "CCCCCc1nc2c(c(=O)c3ccccc3n2C)c(=O)n1C1CCCCCC1", "Potency": "inconclusive: 31.6 µM [inhibitor, partial curve, poor fit]"},
      {"smiles": "C=CCn1c(SCC(=O)/C(C#N)=C(\\C)N)nc2sc(CC)cc2c1=O", "Potency": "inconclusive: 25.1 µM [inhibitor, partial curve, poor fit]"},
      {"smiles": "c1ccc(-c2nc(-c3ccccn3)no2)cc1", "Potency": "inconclusive: 12.6 µM [inhibitor, partial curve, poor fit]"},
      {"smiles": "COc1cccc(OC)c1OCC(=O)Nc1ccc(S(=O)(=O)N2CCCC2)cc1", "Potency": "inconclusive: 25.1 µM [inhibitor, partial curve, poor fit]"},
      {"smiles": "CCCCCCCn1c(=O)c(C(=O)OC)c(N)c2ccccc21", "Potency": "inconclusive: 12.6 µM [inhibitor, partial curve, poor fit]"},
      {"smiles": "Cc1nnnn1/C(=C\\c1ccccc1)C(=O)OCC(=O)N1CC2(C)CC1CC(C)(C)C2", "note": "(stereo not drawn)", "Potency": "inconclusive: 31.6 µM [inhibitor, partial curve, poor fit]"},
      {"smiles": "Cc1cc(C)c(NS(=O)(=O)c2ccc3c(c2)NC(=O)CC(=O)N3)c(C)c1", "Potency": "inactive"},
      {"smiles": "Cc1cccc(/C=C/C(=O)c2ccc([N+](=O)[O-])o2)c1", "Potency": "inconclusive: 25.1 µM [inhibitor, partial curve, poor fit]"},
      {"smiles": "O=C(/C=C/c1ccnc2ccccc12)c1cccs1", "Potency": "inconclusive: 31.6 µM [inhibitor, single point]"},
      {"smiles": "CCOc1cc(CNCc2ccncc2)cc(Br)c1OCc1ccc(F)cc1", "Potency": "inconclusive: 15.8 µM [inhibitor, partial curve, poor fit]"},
      {"smiles": "CC(=O)C(=Cc1ccc(-c2ccccc2)cc1)C(=O)c1ccccc1", "Potency": "inconclusive: 22.4 µM [inhibitor, partial curve, poor fit]"},
      {"smiles": "Cc1ccccc1C(=O)N1N=C(c2ccc(NS(C)(=O)=O)cc2)CC1c1cccs1", "note": "(stereo not drawn)", "Potency": "inconclusive: 20 µM [inhibitor, partial curve, poor fit]"},
      {"smiles": "Cc1noc2ncnc(Sc3ccccc3Cl)c12", "Potency": "inconclusive: 39.8 µM [inhibitor, partial curve, poor fit]"},
      {"smiles": "CCN(CC)S(=O)(=O)c1ccc(NC(=O)COc2c(OC)cccc2OC)cc1", "Potency": "inconclusive: 31.6 µM [inhibitor, partial curve, poor fit]"},
      {"smiles": "O=C1c2ccccc2C(=O)C1(CO)c1ccc(OC(F)F)cc1", "Potency": "inconclusive: 39.8 µM [inhibitor, single point]"},
      {"smiles": "O=C(NC(=O)c1cc([N+](=O)[O-])ccc1Cl)C1=C(N2CCCC2)COC1=O", "Potency": "inconclusive: 20 µM [inhibitor, partial curve, poor fit]"},
      {"smiles": "Nc1cc(Cl)c2nonc2c1[N+](=O)[O-]", "Potency": "inconclusive: 8.91 µM [inhibitor, full curve, poor fit]"},
      {"smiles": "CCN(CC)CCC(=O)N1C/C(=C/c2ccccc2)C(=O)/C(=C\\c2ccccc2)C1", "Potency": "inconclusive: 3.55 µM [inhibitor, partial curve, poor fit]"},
      {"smiles": "COc1ccc(NC(=O)c2[nH]c(C)c(C(C)=O)c2C)cc1", "Potency": "inactive"},
      {"smiles": "Cc1ccc2[nH]c(C(=O)N3CCCCC3)cc2c1", "Potency": "inactive"},
      {"smiles": "Cc1ccc(NC(=O)C2CCCN(c3ncnc4onc(C)c34)C2)cc1Cl", "note": "(stereo not drawn)", "Potency": "inconclusive: 20 µM [inhibitor, partial curve, poor fit]"},
      {"smiles": "O=C(CSc1ccccn1)Nc1nonc1[N+](=O)[O-]", "Potency": "inconclusive: 31.6 µM [inhibitor, partial curve, poor fit]"},
      {"smiles": "O=C(NCc1ccccn1)c1ccccc1OCc1ccc(Cl)cc1Cl", "Potency": "inactive"},
      {"smiles": "O=C(Nc1cccc(S(=O)(=O)N2CCCCC2)c1)c1cnccn1", "Potency": "inactive"}
    ]}
  ]
}
